Test results from publication doi:10.1101/690552.
These are yes or no findings as the source states them, for the method shown. In cells and extracts the contact can be indirect. Some results given as binding are weak or reduced against the parent protein; the word gives no strength.

Chains of the proteins cited; added tags and fusions are not shown.
UniProt O70546: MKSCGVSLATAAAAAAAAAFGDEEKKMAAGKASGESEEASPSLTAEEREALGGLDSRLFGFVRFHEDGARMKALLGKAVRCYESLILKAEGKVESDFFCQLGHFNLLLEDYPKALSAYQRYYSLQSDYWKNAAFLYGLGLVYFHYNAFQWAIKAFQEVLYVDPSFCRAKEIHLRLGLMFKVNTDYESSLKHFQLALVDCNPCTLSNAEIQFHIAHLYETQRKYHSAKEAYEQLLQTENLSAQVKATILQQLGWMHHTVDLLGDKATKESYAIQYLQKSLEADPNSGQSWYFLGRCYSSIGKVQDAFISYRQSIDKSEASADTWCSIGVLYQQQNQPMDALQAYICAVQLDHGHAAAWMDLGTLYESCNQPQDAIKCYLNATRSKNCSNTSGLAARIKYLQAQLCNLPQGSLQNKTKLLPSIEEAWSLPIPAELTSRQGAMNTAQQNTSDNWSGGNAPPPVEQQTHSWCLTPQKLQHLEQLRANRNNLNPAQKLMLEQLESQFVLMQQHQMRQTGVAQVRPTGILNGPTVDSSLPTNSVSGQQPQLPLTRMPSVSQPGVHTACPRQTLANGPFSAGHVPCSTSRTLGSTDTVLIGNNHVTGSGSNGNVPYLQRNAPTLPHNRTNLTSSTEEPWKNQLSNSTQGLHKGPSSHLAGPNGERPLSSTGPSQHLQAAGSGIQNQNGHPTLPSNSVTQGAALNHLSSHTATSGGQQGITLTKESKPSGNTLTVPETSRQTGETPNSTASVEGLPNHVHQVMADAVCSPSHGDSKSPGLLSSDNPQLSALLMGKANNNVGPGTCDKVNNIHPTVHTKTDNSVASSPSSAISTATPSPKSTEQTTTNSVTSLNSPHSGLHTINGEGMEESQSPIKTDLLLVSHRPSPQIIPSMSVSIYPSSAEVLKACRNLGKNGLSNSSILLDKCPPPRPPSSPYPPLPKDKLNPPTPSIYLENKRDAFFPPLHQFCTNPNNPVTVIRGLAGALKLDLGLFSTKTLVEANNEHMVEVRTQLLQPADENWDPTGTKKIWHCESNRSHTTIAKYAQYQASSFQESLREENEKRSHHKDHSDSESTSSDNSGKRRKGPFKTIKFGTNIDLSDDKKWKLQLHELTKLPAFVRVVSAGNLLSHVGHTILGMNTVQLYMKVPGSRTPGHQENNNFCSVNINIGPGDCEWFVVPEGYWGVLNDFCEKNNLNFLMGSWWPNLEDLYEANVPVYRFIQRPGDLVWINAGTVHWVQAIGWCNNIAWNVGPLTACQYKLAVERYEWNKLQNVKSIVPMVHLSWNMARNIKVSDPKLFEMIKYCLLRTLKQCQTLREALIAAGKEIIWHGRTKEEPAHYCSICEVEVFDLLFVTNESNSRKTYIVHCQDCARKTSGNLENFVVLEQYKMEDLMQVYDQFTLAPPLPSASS
UniProt P22361: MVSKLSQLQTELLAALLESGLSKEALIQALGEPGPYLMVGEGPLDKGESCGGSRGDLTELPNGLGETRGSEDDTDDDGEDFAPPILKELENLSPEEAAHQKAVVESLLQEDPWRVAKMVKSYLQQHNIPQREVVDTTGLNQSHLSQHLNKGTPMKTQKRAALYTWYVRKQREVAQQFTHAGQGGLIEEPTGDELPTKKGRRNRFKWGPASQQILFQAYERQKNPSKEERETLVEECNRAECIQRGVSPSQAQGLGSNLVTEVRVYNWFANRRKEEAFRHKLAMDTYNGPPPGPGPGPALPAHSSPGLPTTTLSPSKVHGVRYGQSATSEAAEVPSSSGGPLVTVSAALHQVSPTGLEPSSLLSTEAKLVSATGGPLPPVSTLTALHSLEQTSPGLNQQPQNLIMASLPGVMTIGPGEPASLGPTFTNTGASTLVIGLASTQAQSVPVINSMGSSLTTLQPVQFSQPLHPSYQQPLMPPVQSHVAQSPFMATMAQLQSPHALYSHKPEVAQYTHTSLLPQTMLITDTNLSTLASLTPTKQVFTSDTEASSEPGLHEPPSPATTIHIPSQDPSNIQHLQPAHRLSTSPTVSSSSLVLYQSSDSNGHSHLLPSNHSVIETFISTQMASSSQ

Target: UTX (mouse (endogenous in 266-6)) (UniProt O70546)
Experiment: co-IP

binding: binds
Substance: HNF1A (from UniProt P22361 1-628)
